Measurements taken from paper PMC12669739.
These are yes or no findings as the source states them, for the method shown. In cells and extracts the contact can be indirect. A yes stands for co-enrichment or nearness to the bait. Other partners may have been found. Sequences can lack the tags named with a protein.

Chains of the proteins cited; added tags and fusions are not shown. Lines headed by an entry give the natural chain unless they say otherwise; changes in a name come on top. Residues count along the entry.
UniProt Q9UIW2, residues 27-1896: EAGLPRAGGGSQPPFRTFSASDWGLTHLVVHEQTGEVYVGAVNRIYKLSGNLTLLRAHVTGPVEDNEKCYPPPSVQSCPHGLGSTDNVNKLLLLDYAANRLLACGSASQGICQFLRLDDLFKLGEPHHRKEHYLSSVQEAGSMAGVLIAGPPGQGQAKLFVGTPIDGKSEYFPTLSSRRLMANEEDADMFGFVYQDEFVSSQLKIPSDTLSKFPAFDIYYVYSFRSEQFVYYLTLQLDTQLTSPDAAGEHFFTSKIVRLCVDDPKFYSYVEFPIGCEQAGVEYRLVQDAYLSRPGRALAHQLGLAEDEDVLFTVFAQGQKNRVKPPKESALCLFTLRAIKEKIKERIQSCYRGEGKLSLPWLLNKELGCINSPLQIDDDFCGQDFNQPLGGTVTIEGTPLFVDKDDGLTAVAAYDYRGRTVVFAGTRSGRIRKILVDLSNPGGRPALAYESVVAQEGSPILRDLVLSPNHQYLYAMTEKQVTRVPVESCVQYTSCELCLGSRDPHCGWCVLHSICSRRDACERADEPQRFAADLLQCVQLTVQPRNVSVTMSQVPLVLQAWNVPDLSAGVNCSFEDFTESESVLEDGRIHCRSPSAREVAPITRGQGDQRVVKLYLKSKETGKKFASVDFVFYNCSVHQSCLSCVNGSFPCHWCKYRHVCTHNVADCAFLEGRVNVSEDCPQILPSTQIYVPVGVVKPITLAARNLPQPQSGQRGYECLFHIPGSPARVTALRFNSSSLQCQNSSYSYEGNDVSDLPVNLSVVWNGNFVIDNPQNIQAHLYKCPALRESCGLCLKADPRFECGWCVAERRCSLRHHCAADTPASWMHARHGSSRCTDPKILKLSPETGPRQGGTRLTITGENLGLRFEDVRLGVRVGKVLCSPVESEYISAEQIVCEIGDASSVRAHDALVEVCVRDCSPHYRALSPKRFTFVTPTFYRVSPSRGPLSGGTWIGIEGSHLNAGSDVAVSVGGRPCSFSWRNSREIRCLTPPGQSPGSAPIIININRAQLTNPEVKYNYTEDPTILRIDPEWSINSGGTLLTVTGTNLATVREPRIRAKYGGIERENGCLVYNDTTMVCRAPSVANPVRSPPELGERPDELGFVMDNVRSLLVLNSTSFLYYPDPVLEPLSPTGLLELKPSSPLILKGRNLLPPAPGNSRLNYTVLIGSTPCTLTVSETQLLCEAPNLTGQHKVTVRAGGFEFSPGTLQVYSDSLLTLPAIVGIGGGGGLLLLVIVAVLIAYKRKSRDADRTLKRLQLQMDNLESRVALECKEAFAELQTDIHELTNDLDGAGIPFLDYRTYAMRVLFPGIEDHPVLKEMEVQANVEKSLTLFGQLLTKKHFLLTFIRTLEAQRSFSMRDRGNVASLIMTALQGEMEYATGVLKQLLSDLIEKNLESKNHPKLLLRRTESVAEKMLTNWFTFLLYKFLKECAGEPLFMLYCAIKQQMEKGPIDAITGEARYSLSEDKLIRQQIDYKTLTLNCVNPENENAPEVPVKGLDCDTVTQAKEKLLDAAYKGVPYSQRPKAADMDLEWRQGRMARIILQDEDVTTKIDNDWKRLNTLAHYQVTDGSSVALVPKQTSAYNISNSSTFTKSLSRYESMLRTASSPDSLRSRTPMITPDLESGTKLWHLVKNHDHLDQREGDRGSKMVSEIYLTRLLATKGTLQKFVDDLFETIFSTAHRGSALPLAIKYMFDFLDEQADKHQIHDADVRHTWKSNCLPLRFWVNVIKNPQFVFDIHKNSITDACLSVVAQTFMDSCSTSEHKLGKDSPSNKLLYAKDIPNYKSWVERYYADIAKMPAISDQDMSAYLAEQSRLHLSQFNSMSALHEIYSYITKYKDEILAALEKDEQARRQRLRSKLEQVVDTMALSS

Biological target: T1, NRP2-TurboID construct (NRP2 fused to miniTurbo biotin ligase) (human) (UniProt O60462)
T1 sequence: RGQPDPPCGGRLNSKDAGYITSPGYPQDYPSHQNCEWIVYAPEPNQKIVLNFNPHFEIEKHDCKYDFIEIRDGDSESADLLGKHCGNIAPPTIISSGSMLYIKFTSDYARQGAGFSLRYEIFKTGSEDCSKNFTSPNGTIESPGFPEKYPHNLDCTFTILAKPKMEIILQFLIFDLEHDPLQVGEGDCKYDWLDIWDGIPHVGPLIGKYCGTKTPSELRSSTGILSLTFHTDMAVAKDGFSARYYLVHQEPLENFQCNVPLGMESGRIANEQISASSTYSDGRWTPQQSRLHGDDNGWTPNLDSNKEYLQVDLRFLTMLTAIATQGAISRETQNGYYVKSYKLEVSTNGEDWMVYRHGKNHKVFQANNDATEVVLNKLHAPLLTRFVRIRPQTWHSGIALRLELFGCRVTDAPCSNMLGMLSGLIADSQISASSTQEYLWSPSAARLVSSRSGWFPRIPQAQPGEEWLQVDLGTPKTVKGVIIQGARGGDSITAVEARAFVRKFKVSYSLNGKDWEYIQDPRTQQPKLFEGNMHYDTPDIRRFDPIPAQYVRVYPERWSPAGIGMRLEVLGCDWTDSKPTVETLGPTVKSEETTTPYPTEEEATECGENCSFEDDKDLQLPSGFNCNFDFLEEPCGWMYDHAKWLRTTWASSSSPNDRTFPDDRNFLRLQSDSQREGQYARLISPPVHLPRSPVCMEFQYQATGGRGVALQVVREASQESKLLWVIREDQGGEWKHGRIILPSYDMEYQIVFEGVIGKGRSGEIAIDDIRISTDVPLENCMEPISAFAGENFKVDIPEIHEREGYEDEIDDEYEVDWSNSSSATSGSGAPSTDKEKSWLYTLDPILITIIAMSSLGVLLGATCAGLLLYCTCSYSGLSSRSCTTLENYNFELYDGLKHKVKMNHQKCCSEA
Assay: proximity labelling; T98G cells transfected with NRP2-miniTurbo for 48 h, 50 μM biotin for 10 min, streptavidin magnetic beads, immunoblot

PLXNA1 (endogenous, T98G cells) (from UniProt Q9UIW2 27-1896) (receptor)
binding: binds
